Experimental data: article PMC8892947

Legend:
[1] = target: T1, CL11-M N85G,N87L,M105R,N109S,M117I,M119T,M127V (Bacillus stearothermophilus (mRNA display variant)) (UniProt P56210); test: RNase A protection; settings: Buffer R: 30 mM Tris pH 7.9, 20 mM MgCl2, 175 mM KCl, recombinant protein, protein details: N-terminal MHHHHHH, label: 5' fluorescein-Spacer9
T1 sequence (looked up, limits assumed): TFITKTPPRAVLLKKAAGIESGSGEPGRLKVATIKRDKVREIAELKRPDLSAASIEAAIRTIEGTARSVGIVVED

[2] = target: T2, CL11 (uL11 C-terminal RNA-binding domain, wild type) (Bacillus stearothermophilus) (UniProt P56210); test: RNase A protection; settings: Buffer R: 30 mM Tris pH 7.9, 20 mM MgCl2, 175 mM KCl, recombinant protein, protein details: N-terminal MHHHHHH, label: 5' fluorescein-Spacer9
T2 sequence (looked up, limits assumed): T1 sequence (looked up, limits assumed) with V11M, G27N, L29N, R47M, S51N, I59M, T61M, V69M

[3] = target: T1, CL11-M N85G,N87L,M105R,N109S,M117I,M119T,M127V (Bacillus stearothermophilus (mRNA display variant)); test: EMSA; settings: 2 uM each, 1:1; Buffer R: 30 mM Tris pH 7.9, 20 mM MgCl2, 175 mM KCl; EMSA 1 h at room temperature; recombinant protein; protein details: N-terminal MHHHHHH; label: 5' fluorescein-Spacer9
[4] = target: T2, CL11 (uL11 C-terminal RNA-binding domain, wild type) (Bacillus stearothermophilus); test: EMSA; settings: 2 uM each, 1:1; Buffer R: 30 mM Tris pH 7.9, 20 mM MgCl2, 175 mM KCl; EMSA 1 h at room temperature; recombinant protein; protein details: N-terminal MHHHHHH; label: 5' fluorescein-Spacer9
[5] = target: T1, CL11-M N85G,N87L,M105R,N109S,M117I,M119T,M127V (Bacillus stearothermophilus (mRNA display variant)); test: pull-down; settings: without Mg2+ and K+, stability unchanged; Buffer R: 30 mM Tris pH 7.9, 20 mM MgCl2, 175 mM KCl; recombinant protein; protein details: N-terminal MHHHHHH; label: 5' biotin-TEG
[6] = target: T2, CL11 (uL11 C-terminal RNA-binding domain, wild type) (Bacillus stearothermophilus); test: pull-down; settings: without Mg2+ and K+, stability unchanged; Buffer R: 30 mM Tris pH 7.9, 20 mM MgCl2, 175 mM KCl; recombinant protein; protein details: N-terminal MHHHHHH; label: 5' biotin-TEG
[7] = target: T1, CL11-M N85G,N87L,M105R,N109S,M117I,M119T,M127V (Bacillus stearothermophilus (mRNA display variant)); test: SPR; settings: kon 1.9e4 1/Ms, koff 4.5e-4 1/s, 20 mM Mg2+, 175 mM K+; Buffer R: 30 mM Tris pH 7.9, 20 mM MgCl2, 175 mM KCl; SPR in buffer R + 0.1% Triton X-100; recombinant protein; protein details: N-terminal MHHHHHH; label: 5' biotin-TEG
[8] = target: T2, CL11 (uL11 C-terminal RNA-binding domain, wild type) (Bacillus stearothermophilus); test: SPR; settings: kon 1.2e4 1/Ms, koff 3.0e-4 1/s, 20 mM Mg2+, 175 mM K+; Buffer R: 30 mM Tris pH 7.9, 20 mM MgCl2, 175 mM KCl; SPR in buffer R + 0.1% Triton X-100; recombinant protein; protein details: N-terminal MHHHHHH; label: 5' biotin-TEG
[9] = target: T1, CL11-M N85G,N87L,M105R,N109S,M117I,M119T,M127V (Bacillus stearothermophilus (mRNA display variant)); test: native IM-MS; settings: 9+ complex 3084 m/z, CCS 2080 and 1920 A2; Buffer R: 30 mM Tris pH 7.9, 20 mM MgCl2, 175 mM KCl; recombinant protein; protein details: N-terminal MHHHHHH
[10] = target: T2, CL11 (uL11 C-terminal RNA-binding domain, wild type) (Bacillus stearothermophilus); test: native IM-MS; settings: 9+ complex 3100 m/z, CCS 2100 A2; Buffer R: 30 mM Tris pH 7.9, 20 mM MgCl2, 175 mM KCl; recombinant protein; protein details: N-terminal MHHHHHH
[11] = target: T1, CL11-M N85G,N87L,M105R,N109S,M117I,M119T,M127V (Bacillus stearothermophilus (mRNA display variant)); test: Lon protease protection; settings: Buffer R: 30 mM Tris pH 7.9, 20 mM MgCl2, 175 mM KCl; recombinant protein; protein details: N-terminal MHHHHHH

GCCAGGAUGUAGGCUUAGAAGCAGCCAUCAUUUAAAGAAAGCGUAAUAGCUCACUGGU [f58rRNA]
binding result ([1]; 20 mM EDTA, buffer R, 30 C): binds
binding result ([1]; Lon buffer, 37 C): binds
binding result ([2]; 20 mM EDTA, buffer R, 30 C): binds
binding result ([2]; Lon buffer, 37 C): binds
binding result [3]: binds
binding result [4]: binds

GCCAGGAUGUAGGCUUAGAAGCAGCCAUCAUUUAAAGAAAGCGUAAUAGCUCACUGGU [biotinylated 58rRNA]
binding result [5]: binds
binding result [6]: binds
Kd [7]: 24 nM
Kd [8]: 25 nM

GCCAGGAUGUAGGCUUAGAAGCAGCCAUCAUUUAAAGAAAGCGUAAUAGCUCACUGGU [58rRNA (label not stated)]
binding result [9]: binds
binding result [10]: binds
binding result [11]: binds

Substitutions are numbered along the chain they refer to. For some of these results: At least one verdict rests on a figure or table, not on a statement of the authors. Tags and fusion partners may be left off the protein sequences shown.
